No constants are given. Whether binding was seen depends on the method and setting. In cells and extracts the contact can be indirect. Some entries that bind do so weakly or less than the wild type.

The test has as its target T1, LHX2 (mouse (endogenous in retina)) (UniProt Q9Z0S2).
T1 sequence: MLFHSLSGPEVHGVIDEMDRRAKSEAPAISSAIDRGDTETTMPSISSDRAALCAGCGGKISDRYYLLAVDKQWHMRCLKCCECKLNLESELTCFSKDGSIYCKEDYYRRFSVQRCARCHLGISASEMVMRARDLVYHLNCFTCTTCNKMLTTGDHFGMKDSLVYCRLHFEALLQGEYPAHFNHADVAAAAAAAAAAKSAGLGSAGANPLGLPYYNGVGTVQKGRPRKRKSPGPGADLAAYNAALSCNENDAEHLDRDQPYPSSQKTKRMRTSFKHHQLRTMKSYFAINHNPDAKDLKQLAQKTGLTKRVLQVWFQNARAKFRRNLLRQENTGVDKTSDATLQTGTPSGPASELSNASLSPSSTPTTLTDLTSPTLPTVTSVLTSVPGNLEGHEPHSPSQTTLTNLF
As to the kind of experiment: co-IP.

B1: LDB1 (protein, UniProt P70662 1-411)
chain: MSVGCACPGCSSKSFKLYSPKEPPNGNAFPPFHPGTMLDRDVGPTPMYPPTYLEPGIGRHTPYGNQTDYRIFELNKRLQNWTEECDNLWWDAFTTEFFEDDAMLTITFCLEDGPKRYTIGRTLIPRYFRSIFEGGATELYYVLKHPKEAFHSNFVSLDCDQGSMVTQHGKPMFTQVCVEGRLYLEFMFDDMMRIKTWHFSIRQHRELIPRSILAMHAQDPQMLDQLSKNITRCGLSNSTLNYLRLCVILEPMQELMSRHKTYSLSPRDCLKTCLFQKWQRMVAPPAEPARQQPSKRRKRKMSGGSTMSSGGGNTNNSNSKKKSPASTFALSSQVPDVMVVGEPTLMGGEFGDEDERLITRLENTQFDAANGIDDEDSFNNSPALGANSPWNSKPPSSQESKSENPTSQASQ
On to B1, for which the binding result is given as “binds”.
